# Primary screen of a compound library

Source: ChEMBL document CHEMBL3988442, “University of Dundee, Small-Polar-MMV Screening Library” (2021).

Each number is a percent effect as filed. How 0% and 100% were set is not recorded. Most values in the screen are low, and negative values occur. Compounds were drawn at random from those tested, without regard to their results. A dash means the value is not listed here; it may have been measured.

Mtb growth Cornell: 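Whole-cell assay for inhibitors of Mycobacterium tuberculosis growth, labelled Cornell in the record; the read-out is not stated. The concentration is filed as 10 mM, unlikely as a test dose, so the dose is not known. Higher means stronger inhibition (inferred from two other growth screens of the library). About 53,000 compounds were tested under these conditions; 1.7% (about 900) showed 50% or more at least once.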
Mtb heat-shock: 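Assay on Mycobacterium tuberculosis, filed only as a heat shock assay from Cornell; the read-out is not stated. The concentration is filed as 10 mM, unlikely as a test dose, so the dose is not known. Higher reads as stronger inhibition (inferred: compounds with an IC50 in retests scored well above the rest). About 69,000 compounds were tested under these conditions; 1.4% (about 930) showed 50% or more at least once.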

compound | Mtb growth Cornell | Mtb heat-shock
CCc1ccsc1C(=O)NC(C#N)CC (configuration not stated) | -16.56 | 9.376
c1ccc(-c2nc(CN3CCOC(Cn4cccn4)C3)no2)cc1 (configuration not stated) | - | 2.98
O=C(O)C(F)(F)F.[H][C@@]12COC[C@]1([H])[C@@H](OCC(=O)N(C)C)CN2Cc1ccc(CC)o1 | 5.671 | 13.05
O=C(CCc1cc(Br)cs1)NCCCn1ccnc1 | - | -35.89
Cc1ccc(NCCCNC(=O)NCC2CCS(=O)(=O)C2)nc1 (configuration not stated) | -8.535 | -11.64
COc1ccccc1C(=O)N1CCCC1c1nncn1CC(C)C (configuration not stated) | 7.082 | -23.29
Cc1nc(C2CCCN(C(=O)COCc3ccccc3)C2)no1 (configuration not stated) | -17.45 | -13.13
Cc1cc(CN2CCN(C(=O)NCc3csc(C)n3)CC2)no1 | - | -33.75
COc1cc(CNC(C)Cn2cccn2)cc(OC)c1 (configuration not stated) | -22 | -10.57
O=C(O)C(F)(F)F.O=C(c1ccc[nH]1)N1CCO[C@]2(CCC[C@@H]2COc2cccnc2)C1 | 20.99 | -19.96
CCc1nc(C)sc1CN1CC[C@@](O)(CCOC)[C@H](C)C1 | 0.9911 | 6.08
CC(C)(C)c1ccc(-c2n[nH]c3c2CN(CC2CCOC2)CC3)cc1 (configuration not stated) | 9.554 | 27.2
CCn1cc(CN2CCCn3nc(CNC(=O)N(C)C)cc3C2)cn1 | 17.32 | 5.496
O=C(O)C(F)(F)F.[H][C@@]12CN(C(=O)Cc3ccsc3)C[C@]1([H])OCCN2c1cnccn1 | -15.45 | -18.27
COc1ccccc1C(=O)Nc1ccc(OC2CCN(C)CC2)cc1 | 7.423 | -22.58
NC(=O)c1ccc(NC(=O)N2CCN(c3cccs3)CC2)c(F)c1 | 54.78 | 21.3
O=C(NCC1CCCO1)c1c(-n2cnnn2)sc2c1CCC2 (configuration not stated) | -2.599 | 8.376
O=C(O)C(F)(F)F.c1cnc(N2CC3(CCN(C4CCOCC4)CC3)c3ccccc32)nc1 | 6.869 | -9.888
CCNc1ncc(C(=O)N[C@H](C(N)=O)c2ccccc2)cn1 | -10.46 | 26.39
O=C(Cc1cccc(O)c1)NC1CCN(c2cccc(Cl)c2)C1 (configuration not stated) | 34.68 | 13.1
CCn1cc(C(=O)Nc2ccccc2C(=O)OC)cn1 | -13.37 | 11.64
O=S1(=O)CCC(N2CCN(c3cc(C(F)(F)F)ccn3)CC2)C1 (configuration not stated) | 17.43 | -18.86
c1cncc(CN2CCn3cc(Cn4cccn4)nc3C2)c1 | -20.31 | -39.76
CN(C)CC1CSCCCN1S(=O)(=O)Cc1ccc(C(F)(F)F)cc1 (configuration not stated) | 6.966 | -6.292
O=C(O)C(F)(F)F.[H][C@]12CN(CCN(C)C)C(=O)[C@@]1([H])CN(S(=O)(=O)c1ccccc1)C2 | -3.058 | -0.2179
CN1CCC(CCNC(=O)N2CCN(Cc3ccon3)CC2)CC1 | 20.79 | -11.52
Cc1ccnc(NC(=O)CCc2cnn(C)c2C)c1 | - | -9.621
CCn1cnnc1CNC(=O)NCC(O)c1ccc(OC)cc1 (configuration not stated) | -20.87 | 15.86
CC(=O)N(Cc1ncc(C)o1)C1CCN(CCc2cnn(C)c2)C1 (configuration not stated) | -19.4 | -7.59
Cc1cc(CNC(=O)Cc2cccs2)ccc1S(C)(=O)=O | -8.801 | -4.621
CS(=O)(=O)NCc1cc(=O)n2c(n1)CN(CC1CC1)CCC2.O=C(O)C(F)(F)F | 3.498 | 5.307
CN(C)c1nc2c(c(N(C)C)n1)CCN(C(=O)CN1CCC(O)CC1)C2 | 8.039 | 6.857
COCCNc1nc(C)nc2c1CCN(C[C@H]1CC[C@@H](N)CC1)CC2 | -19.93 | -33.02
COc1c(C2CCCN2C(=O)CCNc2ncccn2)c(C)nn1C (configuration not stated) | - | -0.1061
O=C(O)C(c1ccc2c(c1)OCO2)N1CCC(C(=O)N2CCCC2)CC1 (configuration not stated) | 17.64 | 10.82
Cc1ccnc(NC(=O)C(C)Cn2cncn2)c1 (configuration not stated) | -18.18 | -5.196
CCc1nc(CN(C)C(=O)CSC)no1 | 7.399 | 13.72
CNC(=O)c1ccc(OC)c(NCc2ncc(-c3cccs3)o2)c1 | 11.51 | -31.7
O=C(O)C(F)(F)F.[H][C@@]12CCN(C(=O)CC3CC3)C[C@]1(COc1ncccc1F)CCO2 | -2.236 | -3.299
O=c1[nH]c2cc3c(cc2cc1CN1CCCC1c1ccccn1)CCC3 (configuration not stated) | -2.942 | 38.46
[H][C@@]12C[C@@H](O)CN1C[C@@H](Cc1ccccc1)N(Cc1cnn(C=C)c1C)C2 | -4.707 | -16.36
Cc1noc(C)c1CN(Cc1cccs1)C1CCS(=O)(=O)C1 (configuration not stated) | -24.86 | -22.51
Cc1cc(C)c(Cn2cncn2)cc1CN1CC[C@H](CO)[C@@H](O)C1 | -2.628 | -4.147
CN(Cc1cccc(OC(F)(F)F)c1)C(=O)c1cnsn1 | 16.82 | 22.95
COC(=O)c1ccc(N2CCN(CCN3CCOCC3)C(C)C2)cc1 (configuration not stated) | 14.23 | -21.66
Cc1nc(CC(=O)N2CCN(C)CC2c2ccccc2)cs1 (configuration not stated) | -6.949 | 3.922
CCC(NC(=O)NCc1cc(Cl)ccc1OC)c1noc(C)n1 (configuration not stated) | -5.522 | -7.287
CC(C)c1nccn1C1CCCN(C(=O)c2cccc3[nH]ncc23)C1 (configuration not stated) | -42.16 | 10.61
CC(c1ccccc1)N(C)C(=O)CN1CCN(c2cnccn2)CC1 (configuration not stated) | - | -4.457
[H][C@@]12COC[C@]1(c1nc(C)no1)CN(S(=O)(=O)C1CC1)C2 | -13.11 | 5.145
O=C(C1=CCCC1)N1CCC2(CC1)CC(Oc1cccnc1)CO2.O=C(O)C(F)(F)F (configuration not stated) | - | -14.4
CN(Cc1cc(-c2ccccc2)no1)C(=O)CNS(C)(=O)=O | -14.14 | -11.04
COc1cc(NC(=O)NCc2ccccn2)cc(OC)c1 | 29.51 | -13.63
Cc1cccc(N(C)S(=O)(=O)c2cc(C(=O)O)cs2)c1C | - | -0.4054
Cc1nn(C)c(C)c1C(=O)NCc1cc(N(C)C)nc2ccccc12 | -29.39 | -24.09
O=C(Nc1nncs1)N1CCCN(C2CCCC2)CC1 | - | -14.46
CCCc1nc(C)c(C(=O)Nc2cccc(C)n2)s1 | -23.19 | 2.979
CC(C)NC(=O)NC[C@H]1OC[C@@H](NCc2ccc(F)cc2)[C@@H]1O | 0.3067 | -9.28
CC(C)CC(=O)N1CCN(C(=O)N(C)C)CC2(CC(=O)N(C)C2)C1 (configuration not stated) | 16.6 | 8.064
CN(Cc1ccc(OC(F)F)cc1)C(=O)CS(=O)(=O)c1ccc(Cl)cc1 | - | -25.15
O=C1N(c2cccc(F)c2)Cc2nc(=O)[nH]n21 | -98.85 | 7.74
c1cc2c(cc1CN1CCN(Cc3noc(C4CC4)n3)CC1)OCO2 | 10.54 | -18.39
CC(O)CNc1nc(-c2cccnc2)nc2c1CCC2 (configuration not stated) | 12.92 | 6.387
CN1CCN(Cc2ccccc2CNC(=O)c2ccc(Br)cc2)CC1 | -23.39 | 13.57
CCOC1CC2(CCN(C(=O)Cc3ccccn3)CC2)C1.O=C(O)C(F)(F)F | -33.48 | -10.81
CCc1cccc(OCCn2cccc(C#N)c2=O)c1 | -5.696 | -5.597
CC(C)S(=O)(=O)N1CCCC(c2cccc(C(=O)O)c2)C1 (configuration not stated) | - | -0.256
Cn1nc(COCC2CC2)c2c1CN(CC1CC1)CC2.O=C(O)C(F)(F)F.O=C(O)C(F)(F)F | 0.03011 | 19.11
N#Cc1cccc(CS(=O)(=O)NCCC(O)c2ccccc2)c1 (configuration not stated) | 7.948 | -12.95
[H][C@@]12CCN(Cc3cccs3)C[C@@]1([H])O[C@@H](c1ccncn1)C2 | 2.261 | 2.292
Cc1ccccc1C(Nc1ncnc2c1CCNC2)c1ccccc1 (configuration not stated) | 29.66 | 9.607
CC(N(C)Cc1nc2c(cnn2C)c(=O)[nH]1)C(C)(C)C (configuration not stated) | 2.843 | 4.654
CNC(=O)C1(N2CCC[C@H]2C(=O)NC2CCCCC2)CCOCC1.Cl | - | 2.646
Cc1nccn1C1CCCN(C(=O)COC2CCCC2)C1 (configuration not stated) | - | -6.015
CCN(CC)Cc1ccccc1NC(=O)N(C)Cc1ccc(OC)cc1 | -9.867 | 2.278
CC(C)c1n[nH]c(C2CN(Cc3nnc(C4CC4)o3)CCO2)n1 (configuration not stated) | -25.55 | -17.09
CCc1c(C(=O)NC2CCS(=O)(=O)C2)cnn1-c1ccc(C)cc1 (configuration not stated) | - | -9.767
CN(C)C(=O)COC1COC2(CCN(c3cccc(F)c3)CC2)C1.O=C(O)C(F)(F)F (configuration not stated) | 13.66 | 3.07
CCSC(C)C(=O)N1CCC(c2nn(C)c(=O)n2-c2ccccc2)CC1 (configuration not stated) | - | -7.448
Cn1ccc(C(=O)NC2CCN(c3ncccn3)CC2)cc1=O | 9.555 | 13.82

The first 9 entries again:

Result for CCc1ccsc1C(=O)NC(C#N)CC (configuration not stated) was Mtb growth Cornell: -16.56%; Mtb heat-shock: 9.376%.
Result for c1ccc(-c2nc(CN3CCOC(Cn4cccn4)C3)no2)cc1 (configuration not stated) was Mtb heat-shock: 2.98%.
Result for O=C(O)C(F)(F)F.[H][C@@]12COC[C@]1([H])[C@@H](OCC(=O)N(C)C)CN2Cc1ccc(CC)o1 was Mtb growth Cornell: 5.671%; Mtb heat-shock: 13.05%.
Result for O=C(CCc1cc(Br)cs1)NCCCn1ccnc1 was Mtb heat-shock: -35.89%.
Result for Cc1ccc(NCCCNC(=O)NCC2CCS(=O)(=O)C2)nc1 (configuration not stated) was Mtb growth Cornell: -8.535%; Mtb heat-shock: -11.64%.
Result for COc1ccccc1C(=O)N1CCCC1c1nncn1CC(C)C (configuration not stated) was Mtb growth Cornell: 7.082%; Mtb heat-shock: -23.29%.
Result for Cc1nc(C2CCCN(C(=O)COCc3ccccc3)C2)no1 (configuration not stated) was Mtb growth Cornell: -17.45%; Mtb heat-shock: -13.13%.
Result for Cc1cc(CN2CCN(C(=O)NCc3csc(C)n3)CC2)no1 was Mtb heat-shock: -33.75%.
Result for COc1cc(CNC(C)Cn2cccn2)cc(OC)c1 (configuration not stated) was Mtb growth Cornell: -22%; Mtb heat-shock: -10.57%.